This is an account of results in publication PMC3164226.

By UniProt entry, the sequences of proteins in these tests, tags left out. Where a name states a change or a piece, a line headed by the entry shows the natural chain unless it says otherwise. Chains listed by the source or under a name are the forms on record and can include a tag or linker.
(GFP)torA-E171Q (O14656, form named): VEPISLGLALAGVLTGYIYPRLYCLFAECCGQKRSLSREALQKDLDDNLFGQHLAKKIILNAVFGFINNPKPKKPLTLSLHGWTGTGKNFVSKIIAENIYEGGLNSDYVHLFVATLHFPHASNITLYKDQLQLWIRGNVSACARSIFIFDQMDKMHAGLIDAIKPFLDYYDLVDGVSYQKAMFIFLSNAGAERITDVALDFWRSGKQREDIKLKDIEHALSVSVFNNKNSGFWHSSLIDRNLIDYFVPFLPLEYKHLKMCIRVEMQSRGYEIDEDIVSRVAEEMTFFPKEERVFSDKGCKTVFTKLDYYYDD
(GFP)torA-ΔE (O14656, form named): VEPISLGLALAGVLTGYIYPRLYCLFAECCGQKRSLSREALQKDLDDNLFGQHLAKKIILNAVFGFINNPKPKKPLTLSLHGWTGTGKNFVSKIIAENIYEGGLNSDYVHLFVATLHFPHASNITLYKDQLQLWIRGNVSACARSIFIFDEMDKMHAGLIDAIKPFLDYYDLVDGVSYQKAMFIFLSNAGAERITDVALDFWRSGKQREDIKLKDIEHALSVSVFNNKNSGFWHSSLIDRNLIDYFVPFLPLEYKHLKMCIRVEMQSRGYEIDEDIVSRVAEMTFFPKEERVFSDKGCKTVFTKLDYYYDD
UniProt Q8BYU6: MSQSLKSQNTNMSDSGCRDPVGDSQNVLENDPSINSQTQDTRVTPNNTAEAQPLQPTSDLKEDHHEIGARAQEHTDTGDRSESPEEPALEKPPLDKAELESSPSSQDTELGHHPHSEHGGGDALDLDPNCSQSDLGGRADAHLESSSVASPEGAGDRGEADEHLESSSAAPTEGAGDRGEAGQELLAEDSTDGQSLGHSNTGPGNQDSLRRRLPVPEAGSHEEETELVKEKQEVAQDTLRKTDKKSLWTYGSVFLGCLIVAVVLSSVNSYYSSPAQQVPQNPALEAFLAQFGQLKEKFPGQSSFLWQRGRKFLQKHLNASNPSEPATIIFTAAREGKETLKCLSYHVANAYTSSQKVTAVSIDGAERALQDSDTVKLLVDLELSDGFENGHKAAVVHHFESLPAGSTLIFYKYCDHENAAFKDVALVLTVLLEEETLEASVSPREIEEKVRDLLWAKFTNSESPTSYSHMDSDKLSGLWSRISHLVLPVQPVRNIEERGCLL
Lamina-Associated-Polypeptide 1 (LAP1) (Q921T2-3, form named): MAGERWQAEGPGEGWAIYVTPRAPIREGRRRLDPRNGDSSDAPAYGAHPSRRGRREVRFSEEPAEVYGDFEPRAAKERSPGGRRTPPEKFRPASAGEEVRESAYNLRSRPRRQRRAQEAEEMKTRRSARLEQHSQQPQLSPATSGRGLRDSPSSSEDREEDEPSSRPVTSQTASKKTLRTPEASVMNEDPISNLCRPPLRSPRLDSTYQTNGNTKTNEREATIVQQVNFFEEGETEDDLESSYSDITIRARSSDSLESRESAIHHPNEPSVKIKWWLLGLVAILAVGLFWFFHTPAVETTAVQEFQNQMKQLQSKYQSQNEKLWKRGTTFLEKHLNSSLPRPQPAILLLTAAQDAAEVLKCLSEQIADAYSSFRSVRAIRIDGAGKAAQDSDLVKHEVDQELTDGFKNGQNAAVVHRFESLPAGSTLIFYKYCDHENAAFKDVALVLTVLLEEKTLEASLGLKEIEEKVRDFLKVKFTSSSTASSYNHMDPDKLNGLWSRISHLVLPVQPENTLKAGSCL

One assay addresses (GFP)torA-E171Q (human) (UniProt O14656). Nature of the assay: co-IP; anti-GFP conjugated AminoLink resin, lysates of NIH-3T3 cells stably expressing (GFP)torA; 50 mM imidazole-HCl pH 7.5, 5% glycerol, 0.5% digitonin, 4 mM MgCl2, 50 mM NaCl, 2 mM ATP and 0.5 mM ADP; 2.5 h at 4°C; mild elution with non-reducing Laemmli buffer; Western blot.
Another assay concerns the target (GFP)torA-ΔE (human) (UniProt O14656). The description is as above.

No constants are given. Whether binding was seen depends on the method and setting. Binding seen in cells or lysates may run through a third protein. Some entries that bind do so weakly or less than the wild type.

On to “LULL1 (Luminal domain like LAP 1) (from UniProt Q8BYU6 1-502)”, for which the binding entry was “binds” in the assay with (GFP)torA-E171Q (human) and “no binding” in the assay with (GFP)torA-ΔE (human).
Turning to “Lamina-Associated-Polypeptide 1 (LAP1) (from UniProt Q921T2-3 1-520)”, the values for the binding result in the assay with (GFP)torA-E171Q (human) and with (GFP)torA-ΔE (human) were “binds” and “no binding”, respectively.
